{"source": "PubChem BioAssay AID504467", "about": "(National Center for Advancing Translational Sciences (NCATS), 2011)", "note": "The campaign covered roughly 330,000 compounds. About 7,700 (2.3%) were called active. This list was built around the results that the source calls inconclusive (neither active nor inactive); the mix of calls is not that of the screen. Calls follow the shape of the dose curve; as a rule, active = well fitted inhibition curve with a large enough effect; inconclusive = small, poorly fitted or top-dose-only effect, or effect the other way; inactive = flat fitted curve, though single readings scatter. Potencies of inconclusive entries are doubtful fits and often do not repeat.", "data": [{"test": "qHTS screen for small molecules that inhibit ELG1-dependent DNA repair in human embryonic kidney (HEK293T) cells expressing luciferase-tagged ELG1; also: nearly all actives have a fitted effect of over 55% in size; also: potency is read from the fitted curve at half-maximal effect", "settings": "HEK293T ELG1-luciferase reporter, luminescence, 16 h, DNA damage induced by 5-fluorouridine; series mostly up to 46.1 µM", "method_in_brief": "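DMSO vehicle served as the neutral condition. Each well held 2,000 cells given 5-fluorouridine plus compound; after 16 hr at 37 °C/5% CO2, ONE-Glo was added and luciferase measured 30 min later.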", "values": [{"compound": "CCCCCCCCOC(=O)C1=C(C)Nc2nnnn2C1c1cccs1", "note": "(stereo not drawn)", "Potency": "inconclusive: 23.1 µM [inhibitor, partial curve, poor fit]"}, {"compound": "Cc1nc2ccccc2n1CCOc1ccccc1", "Potency": "inactive"}, {"compound": "COCCOC(=O)c1c(C)nc(SCC(=O)Nc2ccc(OC)cc2)c(C#N)c1-c1ccco1", "Potency": "active: 23.1 µM"}, {"compound": "CCOc1ccc2nc(C)cc(Nc3ccc4c(c3)OCCO4)c2c1", "Potency": "inconclusive: 1.03 µM [activator, full curve, poor fit]"}, {"compound": "CCCCC(CC)CNC(=O)c1cccs1", "note": "(stereo not drawn)", "Potency": "inconclusive: 1 µM [inhibitor, single point]"}, {"compound": "CCOc1cc(NC(=S)NCc2ccco2)c(OCC)cc1NC(C)=O", "Potency": "inactive"}, {"compound": "CCCCC1CCC(c2nc(-c3ccccn3)no2)CC1", "note": "(stereo not drawn)", "Potency": "inconclusive: 5.8 µM [activator, partial curve]"}, {"compound": "N/C(=N\\c1nc2ccccc2o1)NC(=O)c1cccc(Br)c1", "Potency": "inactive"}, {"compound": "Cc1cc(NS(=O)(=O)c2ccc(NC(=O)/C=C/c3ccc(Br)cc3)cc2)no1", "Potency": "inactive"}, {"compound": "O=C(Nc1ccccc1Cl)c1ccccc1", "Potency": "inconclusive: 18.3 µM [activator, partial curve]"}, {"compound": "CN1CCN(C(=O)CCN2C(=O)/C(=C\\c3ccc(Cl)cc3)SC2=S)CC1", "Potency": "inactive"}, {"compound": "CN1CCN(c2ccc(S(=O)(=O)N3CCCCC3)cc2NC(=O)c2ccc3ccccc3c2)CC1", "Potency": "inconclusive: 29.1 µM [inhibitor, single point]"}, {"compound": "Cc1ccn2c(NC3CCCC3)c(-c3ccsc3)nc2c1", "Potency": "inconclusive: 25.9 µM [inhibitor, single point]"}, {"compound": "COc1ccc(OCCC(=O)OCC(=O)NC(=O)NC(C)(C)C)cc1", "Potency": "inconclusive: 29.1 µM [activator, single point]"}, {"compound": "c1ccn(-c2ncnc3sc4c(c23)CCCC4)c1", "Potency": "inactive"}, {"compound": "O=C(NC1=NCCS1)c1ccc(Cl)c(S(=O)(=O)N2CCc3ccccc32)c1", "Potency": "inconclusive: 29.1 µM [inhibitor, single point]"}, {"compound": "NCCCNC(=O)Cn1c(=O)c2c3c(sc2n(Cc2ccccc2)c1=O)CCCC3", "Potency": "inactive"}, {"compound": "CCOC(=O)N1CCN(S(=O)(=O)c2ccc(C(=O)N(CCN(C)C)c3nc4ccc(CC)cc4s3)cc2)CC1", "Potency": "inconclusive: 20.6 µM [activator, single point]"}, {"compound": "Cc1ccc(N2C(=O)/C(=C\\c3ccco3)SC2=S)cc1", "Potency": "inconclusive: 11.6 µM [activator, partial curve, poor fit]"}, {"compound": "CN(CCCOc1ccccc1Br)Cc1ccccc1", "Potency": "inactive"}, {"compound": "O=C(Nc1ccccc1N1CCCCC1)c1ccc(-c2ccc(Cl)cc2)o1", "Potency": "inactive"}, {"compound": "COc1cc(C)ccc1OCc1cc(C(=O)N2CCC(c3ccc(F)cc3)C2)no1", "note": "(stereo not drawn)", "Potency": "inconclusive: 18.3 µM [activator, partial curve]"}, {"compound": "COc1ccc(CNc2nc3ccccc3n2CCN2CCCCC2)c(OC)c1", "Potency": "inactive"}, {"compound": "COc1ccc(/C(C)=N\\Nc2nc(-c3ccc(Cl)cc3)cc(C(F)(F)F)n2)cc1OC", "Potency": "active: 8.2 µM"}, {"compound": "COc1ccc(C(=O)Oc2cc(/C=N/NC(N)=S)ccc2OC)cc1", "Potency": "inconclusive: 12.6 µM [inhibitor, partial curve, poor fit]"}, {"compound": "Cc1ccc(S(=O)(=O)NNC(=O)Nc2ccc([N+](=O)[O-])cc2)c(C)c1", "Potency": "inactive"}, {"compound": "CCOc1ccc(NC(=O)CN(C)C(=O)c2ccccc2OCCOc2ccccc2)cc1OCC", "Potency": "active: 11.6 µM"}, {"compound": "CN1CCN(c2ccccc2NC(=O)Cn2ncc3c([nH]c4ccccc43)c2=O)CC1", "Potency": "inactive"}, {"compound": "O=C(Nc1ccc2nc3ccccc3nc2c1)c1ccccc1", "Potency": "inconclusive: 1.46 µM [activator, partial curve]"}, {"compound": "O=C1ON=C(c2ccccc2)/C1=C/c1ccc(-c2ccccc2[N+](=O)[O-])o1", "Potency": "inconclusive: 29.1 µM [inhibitor, single point]"}, {"compound": "Brc1ccc(-c2nnc3n2C2(CCCC2)Cc2ccccc2-3)o1", "Potency": "inconclusive: 29.1 µM [inhibitor, partial curve, poor fit]"}, {"compound": "Cc1cc(N2CCCCC2)n2nc(C)c(-c3ccccc3)c2n1", "Potency": "inconclusive: 29.1 µM [inhibitor, single point]"}, {"compound": "Cc1ccccc1OCC(=O)Nc1ccc2c(c1)OCCO2", "Potency": "inconclusive: 18.3 µM [activator, partial curve]"}, {"compound": "CCn1c(Cn2nnc(-c3ccccc3)n2)nnc1SCC(=O)Nc1cccc(C(C)=O)c1", "Potency": "inconclusive: 20.6 µM [inhibitor, single point]"}, {"compound": "CC(=O)c1cccc(S(=O)(=O)N2CCCC(c3nc4c(nnn4Cc4ccccc4Cl)c(=O)[nH]3)C2)c1", "note": "(stereo not drawn)", "Potency": "inconclusive: 29.1 µM [inhibitor, single point]"}, {"compound": "CC(C)c1cc(NC(=O)c2ccccc2)cc(C(C)C)c1O", "Potency": "inactive"}, {"compound": "CSc1ccc(CN2CCN(C(=O)c3ccncc3)CC2)cc1", "Potency": "inconclusive: 29.1 µM [inhibitor, single point]"}, {"compound": "COc1cc([N+](=O)[O-])c(N2CCOCC2)c([N+](=O)[O-])c1OC", "Potency": "inconclusive: 0.58 µM [inhibitor, partial curve, poor fit]"}, {"compound": "CCN1CCN(C(=O)CN(C)S(=O)(=O)c2cc(C)ccc2OC)CC1", "Potency": "inconclusive: 18.3 µM [activator, partial curve, poor fit]"}, {"compound": "O=C(NCCNc1ccc([N+](=O)[O-])cc1C(F)(F)F)c1cccc(F)c1", "Potency": "inactive"}, {"compound": "COc1ccc(C2CN=NC23CCc2ccccc2C3=O)cc1", "note": "(stereo not drawn)", "Potency": "inconclusive: 20.6 µM [inhibitor, single point]"}, {"compound": "COC(=O)CCC(=O)Nc1ccc(S(=O)(=O)Nc2nc(C)cc(C)n2)cc1", "Potency": "inactive"}, {"compound": "O=C1CC(Nc2ccc(N3CCOCC3)cc2)C(=O)N1c1ccccc1F", "note": "(stereo not drawn)", "Potency": "inactive"}, {"compound": "CCN(CC)c1ccc(C(=O)NNC(=O)C2CSC3(C)CCC(=O)N23)cc1", "note": "(stereo not drawn)", "Potency": "inactive"}, {"compound": "CCOc1ccc(NS(=O)(=O)c2cc(C(=O)N3CCN(c4ccccc4O)CC3)ccc2Cl)cc1", "Potency": "inactive"}, {"compound": "CC(=O)c1cccc(NC(=O)Cn2nc(-c3ccccc3Cl)ccc2=O)c1", "Potency": "inactive"}, {"compound": "CO/N=C/c1ccc(N2CCCC2)c([N+](=O)[O-])c1", "Potency": "inactive"}, {"compound": "CCN(CC(=O)NC1CCCC1)S(=O)(=O)c1ccc(F)cc1", "Potency": "inactive"}]}]}
